Measured values reported in the supplement of paper PMC4604168 (melanoma cell lines).
The list shows a part of the results. Single values are uncertain, as repeats are few or missing.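 Imaging used 1,536-well plates; nuclei positive for cleaved PARP by antibody were divided by total DNA-stained nuclei to yield the apoptosis fraction. Doses for screening kept most cells viable, and cell lines differ markedly in resting and induced cleaved-PARP levels.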

Test system: RPMI7951
Assay: cleaved PARP positive nuclei fraction relative to DMSO control; melanoma cells; higher = more apoptosis
Settings: library dose: low library concentration; 72 h

Row | Structure (SMILES) | cleaved PARP positive nuclei fraction
1 | Cn1cnc2c(F)c(Nc3ccc(Br)cc3Cl)c(C(=O)NOCCO)cc21 [selumetinib] + C#Cc1cccc(Nc2ncnc3cc(OCCOC)c(OCCOC)cc23)c1 [erlotinib] (first compound 0.015 µM, partner dose 0.8 µM) | 97.1%
2 | Cn1sc(=O)n(Cc2ccccc2)c1=O + OCc1c[nH]c2ccccc12 [Indole-3-carbinol] (first compound 0.4 µM, partner dose 0.8 µM) | 100%
3 | Cn1cnc2c(F)c(Nc3ccc(Br)cc3Cl)c(C(=O)NOCCO)cc21 [selumetinib] + C[C@@H](Oc1cc(-c2cnn(C3CCNCC3)c2)cnc1N)c1c(Cl)ccc(F)c1Cl [Crizotinib] (first compound 0.015 µM, partner dose 0.2 µM) | 21.3%
4 | NC(=O)c1ccc(N(C(N)=O)c2c(F)cccc2F)nc1-c1ccc(F)cc1F + Clc1ccc(Nc2nnc(Cc3ccncc3)c3ccccc23)cc1 [vatalanib] (first compound 0.4 µM, partner dose 2 µM) | 103%
5 | Cn1sc(=O)n(Cc2ccccc2)c1=O + Clc1ccc(Nc2nnc(Cc3ccncc3)c3ccccc23)cc1 [vatalanib] (first compound 0.4 µM, partner dose 2 µM) | 44.9%
6 | COc1ccc(C2=N[C@@H](c3ccc(Cl)cc3)[C@@H](c3ccc(Cl)cc3)N2C(=O)N2CCNC(=O)C2)c(OC(C)C)c1 [Nutlin-3] + CC(=O)c1c(C)c2cnc(Nc3ccc(N4CCNCC4)cn3)nc2n(C2CCCC2)c1=O [palbociclib] (first compound 0.1 µM, partner dose 0.04 µM) | 178%
7 | COc1ccc(C2=N[C@@H](c3ccc(Cl)cc3)[C@@H](c3ccc(Cl)cc3)N2C(=O)N2CCNC(=O)C2)c(OC(C)C)c1 [Nutlin-3] + Cn1c(=O)n(-c2ccc(C(C)(C)C#N)cc2)c2c3cc(-c4cnc5ccccc5c4)ccc3ncc21 [NVP-BEZ235] (first compound 0.1 µM, partner dose 0.004 µM) | 42.1%
8 | NC(=O)c1ccc(N(C(N)=O)c2c(F)cccc2F)nc1-c1ccc(F)cc1F + C=C(c1ccc(C(=O)O)cc1)c1cc2c(cc1C)C(C)(C)CCC2(C)C [Bexarotene] (first compound 0.4 µM, partner dose 2 µM) | 220%
9 | Cn1cnc2c(F)c(Nc3ccc(Br)cc3Cl)c(C(=O)NOCCO)cc21 [selumetinib] + Cn1nnc2c(C(N)=O)ncn2c1=O [temozolomide] (first compound 0.015 µM, partner dose 2 µM) | 48.5%
10 | C[C@]1(O)C[C@@H](c2nc(-c3ccc4ccc(-c5ccccc5)nc4c3)c3c(N)nccn32)C1 + CS(=O)(=O)c1ccc(C(=O)Nc2ccc(Cl)c(-c3ccccn3)c2)c(Cl)c1 [vismodegib] (first compound 0.4 µM, partner dose 1 µM) | 81.9%
11 | C[C@]1(O)C[C@@H](c2nc(-c3ccc4ccc(-c5ccccc5)nc4c3)c3c(N)nccn32)C1 + Cc1cc(Nc2cc(N3CCN(C)CC3)nc(/C=C/c3ccccc3)n2)n[nH]1 [ENMD2076] (first compound 0.4 µM, partner dose 0.04 µM) | 141%
12 | Cn1cnc2c(F)c(Nc3ccc(Br)cc3Cl)c(C(=O)NOCCO)cc21 [selumetinib] + O=C(O)[C@@H]1[O][Sb](=[O])([O][Sb]2(=[O])[O][C@H]([C@H](O)CO)[C@H](O)[C@H](C(=O)O)[O]2)[O][C@H]([C@H](O)CO)[C@@H]1O [stibogluconate] (first compound 0.015 µM, partner dose 2 µM) | 253%
13 | Cn1cnc2c(F)c(Nc3ccc(Br)cc3Cl)c(C(=O)NOCCO)cc21 [selumetinib] + CCN(CC)CCNC(=O)c1c(C)[nH]c(/C=C2\C(=O)Nc3ccc(F)cc32)c1C [sunitinib] (first compound 0.015 µM, partner dose 0.4 µM) | 68.5%
14 | Cn1sc(=O)n(Cc2ccccc2)c1=O + CN(c1ncccc1CNc1nc(Nc2ccc3c(c2)CC(=O)N3)ncc1C(F)(F)F)S(C)(=O)=O [PF562271] (first compound 0.4 µM, partner dose 0.08 µM) | 81.2%
15 | CC1(C)CCC(c2ccc(Cl)cc2)=C(CN2CCN(c3ccc(C(=O)NS(=O)(=O)c4ccc(N[C@H](CCN5CCOCC5)CSc5ccccc5)c(S(=O)(=O)C(F)(F)F)c4)cc3)CC2)C1 + OCc1c[nH]c2ccccc12 [Indole-3-carbinol] (first compound 0.4 µM, partner dose 0.8 µM) | 86.5%
16 | CC(=O)O[C@@]12CO[C@@H]1C[C@H](O)[C@@]1(C)C(=O)[C@H](O)C3=C(C)[C@@H](OC(=O)[C@H](O)[C@@H](NC(=O)OC(C)(C)C)c4ccccc4)C[C@@](O)([C@@H](OC(=O)c4ccccc4)[C@H]21)C3(C)C [Docetaxel] + NC1(c2ccc(-c3nc4ccn5c(=O)[nH]nc5c4cc3-c3ccccc3)cc2)CCC1 [MK2206] (first compound 0.0001 µM, partner dose 0.4 µM) | 214%
17 | C[C@]1(O)C[C@@H](c2nc(-c3ccc4ccc(-c5ccccc5)nc4c3)c3c(N)nccn32)C1 + Nc1cccc2c1CN(C1CCC(=O)NC1=O)C2=O [lenalidomide] (first compound 0.4 µM, partner dose 1 µM) | 132%
18 | C[C@@H](N)c1ccc(C(=O)Nc2ccnc3[nH]ccc23)cc1 + C=CCNC1=C2C[C@@H](C)C[C@H](OC)[C@H](O)[C@@H](C)/C=C(\C)[C@H](OC(N)=O)[C@@H](OC)/C=C\C=C(/C)C(=O)NC(=CC1=O)C2=O [Tanespimycin] (first compound 0.4 µM, partner dose 0.002 µM) | 134%

Shown as tab-separated lines: entries from further up.
Row	Structure (SMILES)	cleaved PARP positive nuclei fraction
10	C[C@]1(O)C[C@@H](c2nc(-c3ccc4ccc(-c5ccccc5)nc4c3)c3c(N)nccn32)C1 + CS(=O)(=O)c1ccc(C(=O)Nc2ccc(Cl)c(-c3ccccn3)c2)c(Cl)c1 [vismodegib] (first compound 0.4 µM, partner dose 1 µM)	81.9%
11	C[C@]1(O)C[C@@H](c2nc(-c3ccc4ccc(-c5ccccc5)nc4c3)c3c(N)nccn32)C1 + Cc1cc(Nc2cc(N3CCN(C)CC3)nc(/C=C/c3ccccc3)n2)n[nH]1 [ENMD2076] (first compound 0.4 µM, partner dose 0.04 µM)	141%
17	C[C@]1(O)C[C@@H](c2nc(-c3ccc4ccc(-c5ccccc5)nc4c3)c3c(N)nccn32)C1 + Nc1cccc2c1CN(C1CCC(=O)NC1=O)C2=O [lenalidomide] (first compound 0.4 µM, partner dose 1 µM)	132%
